{"source": "PubChem BioAssay AID256", "about": "(DTP/NCI, 2004)", "test_system": "CD2F1 mice, L1210 leukemia ip, survival T/C", "test": "NCI In Vivo Anticancer Drug Screen. Data for tumor model L1210 Leukemia (intraperitoneal) in CD2F1 (CDF1) mice", "details": "higher T/C = longer survival", "method_in_brief": "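Transplantable tumor in mice; compound-treated vs vehicle-treated groups. Read-out = treated/control ratio of the measured endpoint.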", "key": {"[1]": {"details": "T/C endpoint: mean survival time, dose: 200.0 mg/kg/injection, schedule: Q01DX009 (ip), vehicle: saline with Tween-80"}, "[2]": {"details": "T/C endpoint: mean survival time, dose: 100.0 mg/kg/injection, schedule: Q01DX001 (ip), vehicle: saline with Tween-80"}, "[3]": {"details": "T/C endpoint: mean survival time, dose: 200.0 mg/kg/injection, schedule: Q01DX001 (ip), vehicle: saline with Tween-80"}, "[4]": {"details": "T/C endpoint: mean survival time, dose: 400.0 mg/kg/injection, schedule: Q01DX001 (ip), vehicle: saline with Tween-80"}, "[5]": {"details": "T/C endpoint: mean survival time, dose: 400.0 mg/kg/injection, schedule: Q04DX003 (ip), vehicle: Klucel (hydroxypropylcellulose) (HPC)"}}, "note": "The list is a part of this screen's results and no random one: it gathers tests that were run many times, whatever their T/C, doses with no T/C, and many T/C values between a quarter and a half above the control. Other doses and runs of a compound stand elsewhere. T/C: endpoint of the treated group in % of that of the vehicle group. Some entries give survivors of the animals treated and no T/C: the source files T/C as zero there, which appears to mark a toxic dose or a test without result, not a measured value. Some doses without a T/C left all or most animals alive at the check, yet need not have been tolerated: the source hardly ever lists a survival T/C far under the control, and the zero likely stands for such cases as well. Counts of survivors are from the toxicity check (mostly the fifth day) where no day follows; animals may have died later. Schedules are NCI's codes, read here as Q, the interval in days (D) or hours (H), X, the number of doses. Some entries hold several experiments; the values are given in rising order. Where survival is the endpoint, the PubChem record calls one and a half times the control and up active, and a quarter to a half above the control has no call in these data; cut-offs in other NCI protocols can differ. Some schedule codes hold Z or #, which are not explained here.", "data": [{"smiles": "COc1cccc2c1C(=O)c1c(O)c3c(c(O)c1C2=O)C[C@@](O)(C(=O)CO)C[C@@H]3OC1CC(N)C(OC)C(C)O1", "note": "(stereo partly drawn)", "values": [{"measurement": "T/C", "setting": "T/C endpoint: mean survival time, dose: 0.32 mg/kg/injection, schedule: Q01DX009 (ip), vehicle: saline", "result": "136 % of control"}, {"measurement": "T/C", "setting": "T/C endpoint: mean survival time, dose: 0.39 mg/kg/injection, schedule: Q01DX009 (ip), vehicle: saline", "result": "135 % of control"}, {"measurement": "T/C", "setting": "T/C endpoint: mean survival time, dose: 1.3 mg/kg/injection, schedule: Q01DX001 (ip), vehicle: saline", "result": "138 % of control"}, {"measurement": "T/C", "setting": "T/C endpoint: mean survival time, dose: 1.5 mg/kg/injection, schedule: Q01DX009 (ip), vehicle: saline", "result": "134 % of control"}, {"measurement": "T/C", "setting": "T/C endpoint: mean survival time, dose: 2.16 mg/kg/injection, schedule: Q01DX001 (ip), vehicle: saline", "result": "148 % of control"}, {"measurement": "survivor count", "setting": "T/C endpoint: mean survival time, dose: 2.5 mg/kg/injection, schedule: Q01DX009 (ip), vehicle: saline", "result": "6 of 6"}]}, {"smiles": "C=Cc1cnc([N+](=O)[O-])n1C", "values": [{"measurement": "survivor count", "setting": "T/C endpoint: mean survival time, dose: 400.0 mg/kg/injection, schedule: Q01DX009 (ip), vehicle: Klucel (hydroxypropylcellulose) (HPC)", "result": "0 of 6"}]}, {"smiles": "O=c1n(-c2ccccc2)c(=O)n2n1C1C=CC2C2CC2/C=C\\1", "note": "(stereo not drawn)", "values": [{"measurement": "survivor count", "setting": "T/C endpoint: median survival time, dose: 400.0 mg/kg/injection, schedule: Q04DX002 (ip), vehicle: saline with Tween-80", "result": "0 of 3"}]}, {"smiles": "Cc1cccc(CCl)n1", "values": [{"measurement": "survivor count", "setting": "T/C endpoint: mean survival time, dose: 400.0 mg/kg/injection, schedule: Q01DX009 (ip), vehicle: saline", "result": "1 of 6"}]}, {"smiles": "N#Cc1cc([N+](=O)[O-])ccc1Cl", "values": [{"measurement": "survivor count", "setting": "[1]", "result": "3 of 6"}, {"measurement": "survivor count", "setting": "T/C endpoint: mean survival time, dose: 400.0 mg/kg/injection, schedule: Q04DX003 (ip), vehicle: saline with Tween-80", "result": "2 of 6"}]}, {"smiles": "CC1(C)CC(=O)C2=C(C1)OC1(O)CC(C)(C)CC(=O)C1C2c1ccccc1[N+](=O)[O-]", "note": "(stereo not drawn)", "values": [{"measurement": "survivor count", "setting": "T/C endpoint: mean survival time, dose: 25.0 mg/kg/injection, schedule: Q01DX001 (ip), vehicle: saline with Tween-80", "result": "6 of 6"}, {"measurement": "survivor count", "setting": "T/C endpoint: mean survival time, dose: 50.0 mg/kg/injection, schedule: Q01DX001 (ip), vehicle: saline with Tween-80", "result": "6 of 6"}, {"measurement": "survivor count", "setting": "[2]", "result": "5 of 6"}, {"measurement": "survivor count", "setting": "[3]", "result": "3 of 6"}, {"measurement": "survivor count", "setting": "[4]", "result": "0 of 6"}]}, {"smiles": "O=S(=O)(O)C1CCC(O)C2[N-]CCCC21.O=S(=O)(O)C1CCC(O)C2[N-]CCCC21.[Zn+2]", "note": "(stereo not drawn)", "values": [{"measurement": "survivor count", "setting": "[1]", "result": "6 of 6"}]}, {"smiles": "CC(C)c1ccccc1NC1=NCCO1", "values": [{"measurement": "survivor count", "setting": "[5]", "result": "1 of 6"}]}, {"smiles": "O=NN(CCBr)C(=O)Nc1ccccc1", "values": [{"measurement": "T/C", "setting": "T/C endpoint: mean survival time, dose: 12.0 mg/kg/injection, schedule: Q01DX Z (ip), vehicle: carboxymethylcellulose (CMC)", "result": "146 % of control"}, {"measurement": "T/C", "setting": "T/C endpoint: mean survival time, dose: 50.0 mg/kg/injection, schedule: Q01DX Z (ip), vehicle: carboxymethylcellulose (CMC)", "result": "140 % of control"}]}, {"smiles": "O=P(OCCCOCc1ccccc1)(N(CCCl)CCCl)N1CC1", "note": "(stereo not drawn)", "values": [{"measurement": "T/C", "setting": "T/C endpoint: mean survival time, dose: 800.0 mg/kg/injection, schedule: Q01DX001 (ip), vehicle: DMSO", "result": "136 % of control"}]}, {"smiles": "COc1cc(-c2nc(-c3ccc(N=Cc4ccc(N(CCCOS(C)(=O)=O)CCCOS(C)(=O)=O)cc4)cc3)cs2)ccc1OCc1ccccc1", "values": [{"measurement": "survivor count", "setting": "T/C endpoint: mean survival time, dose: 100.0 mg/kg/injection, schedule: Q01DX009 (ip), vehicle: saline with Tween-80", "result": "6 of 6"}, {"measurement": "survivor count", "setting": "T/C endpoint: mean survival time, dose: 400.0 mg/kg/injection, schedule: Q01DX009 (ip), vehicle: saline with Tween-80", "result": "6 of 6"}]}, {"smiles": "Nc1ccc(-c2nc(-c3ccccc3)c(-c3ccccc3)[nH]2)cc1", "values": [{"measurement": "survivor count", "setting": "[2]", "result": "3 of 3"}, {"measurement": "survivor count", "setting": "[3]", "result": "3 of 3"}]}, {"smiles": "Nc1ncnc2c1c(CO)cn2C1OC(CO)C(O)C1O", "note": "(stereo not drawn)", "values": [{"measurement": "survivor count", "setting": "T/C endpoint: mean survival time, dose: 200.0 mg/kg/injection, schedule: Q01DX005 (ip), vehicle: distilled water + Tween-80", "result": "0 of 3"}, {"measurement": "survivor count", "setting": "T/C endpoint: mean survival time, dose: 400.0 mg/kg/injection, schedule: Q01DX005 (ip), vehicle: distilled water + Tween-80", "result": "0 of 3"}]}, {"smiles": "CC[C@@]1(OC(=O)C(N)CCCCN)C(=O)OCc2c1cc1n(c2=O)Cc2cc3ccccc3nc2-1", "note": "(stereo partly drawn)", "values": [{"measurement": "T/C", "setting": "T/C endpoint: median survival time, dose: 7.29 mg/kg/injection, schedule: Q04DX002 (ip), vehicle: water", "result": "125 % of control"}, {"measurement": "T/C", "setting": "T/C endpoint: median survival time, dose: 14.58 mg/kg/injection, schedule: Q04DX002 (ip), vehicle: water", "result": "144 % of control"}, {"measurement": "survivor count", "setting": "T/C endpoint: median survival time, dose: 43.75 mg/kg/injection, schedule: Q04HX004 (iv), vehicle: water", "result": "1 of 6 and 3 of 6"}, {"measurement": "survivor count", "setting": "T/C endpoint: median survival time, dose: 58.33 mg/kg/injection, schedule: Q04HX004 (iv), vehicle: water", "result": "0 of 6 and 1 of 6"}]}, {"smiles": "CC(C)=CC(=O)CC(O)(C(F)(F)F)C(F)(F)Cl", "note": "(stereo not drawn)", "values": [{"measurement": "survivor count", "setting": "[5]", "result": "3 of 6"}]}, {"smiles": "O=C1C=C(N2C3C4CCC(C4)C32)C(=O)C=C1c1ccccc1", "note": "(stereo not drawn)", "values": [{"measurement": "survivor count", "setting": "[4]", "result": "3 of 6"}]}]}
